Source: PubChem BioAssay AID602313 (National Center for Advancing Translational Sciences (NCATS), 2012)
The campaign covered roughly 390,000 compounds. About 760 (0.19%) were called active. Inconclusive means that the source gave no clear call. Such entries were picked first, then a sample of the others. The call rests on the fitted dose curve; in most records, active means well fitted inhibition curve with a large enough effect; inconclusive means small, poorly fitted or top-dose-only effect; inactive means flat fitted curve, though single readings scatter. A potency beside an inconclusive call is a rough fit, not a confirmed value.
Potency means the concentration at half of the fitted maximal effect.

Assay: qHTS for Inhibitors of Vif-A3F Interactions: qHTS; further: nearly all actives have a fitted effect of over 65% in size
Conditions: HeLa A3F-eYFP + Vif (tagged APOBEC3F with the HIV-1 protein that degrades it), YFP fluorescence increase; series mostly up to 46.1 µM
Summary of the method: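 Fluorescence increase (Ex 488/Em 500-530) after overnight compound treatment at 37 deg C flags inhibition of Vif-driven A3F-eYFP loss in stable HeLa A3F-eYFP/Vif cells seeded overnight beforehand.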
With `CC(C)C(=O)NC(=S)Nc1ccccc1N1CCN(C(=O)c2ccccc2)CC1` the Potency was inconclusive: 35.5 µM [inhibitor, single point]. With `CCc1cccc(NC(=S)Nc2cccc3ccccc23)c1` the Potency was inconclusive: 35.5 µM [inhibitor, single point]. For `COc1ccc(OC)c(C=Cc2ccc([N+](=O)[O-])cc2)c1`, the Potency was inconclusive: 35.5 µM [inhibitor, single point]. In the case of `Oc1[nH]c2ccccc2c1N=Nc1ccccc1Cl`, the Potency is reported as active: 22.4 µM. With `CC(C)[C@H](N)C(=O)NC[C@H]1CC[C@H](C(=O)N[C@@H](Cc2ccccc2)C(=O)O)CC1` the Potency was inconclusive: 35.5 µM [inhibitor, single point]. With `Nc1nc(-c2ccccn2)nc(N)c1Cc1c(F)cccc1Cl` the Potency was inconclusive: 12.6 µM [inhibitor, partial curve, poor fit]. With `CS(=O)(=O)Nc1ccc(C2=NN(S(C)(=O)=O)C(c3ccccc3)C2)cc1` (configuration not stated) the Potency was inconclusive: 3.98 µM [inhibitor, single point]. In the case of `COc1ccc(CN2CCN(CCCCOc3ccc(Cl)cc3)CC2)c(OC)c1OC`, the Potency is reported as “inactive”. For `C/C(=N\NC(=O)c1nnn(-c2nonc2N)c1-c1ccccc1)c1ccccc1O`, the Potency was inconclusive: 22.4 µM [inhibitor, single point]. For `CC1(C(=O)OCC(=O)Nc2nnc(-c3ccccc3)o2)CC1(Cl)Cl` (configuration not stated), the Potency was inconclusive: 0.562 µM [inhibitor, full curve, poor fit]. With `CCOC(=O)C1(Cc2cccc(OC)c2)CCN(Cc2cccc(OCC)c2O)CC1` the Potency was inconclusive: 15.8 µM [inhibitor, single point]. In the case of `Cc1ccc(OCC(=O)Nc2ccc(NC(=O)c3cccs3)cc2)c(C)c1`, the Potency is reported as inconclusive: 31.6 µM [inhibitor, single point]. For `CC(Sc1nc(-c2ccccc2)cc(C(F)(F)F)n1)C(=O)N1CCCC1` (configuration not stated), the Potency was “inactive”. For `Cc1cc(C)c(C)c(S(=O)(=O)ON2C(=O)c3ccccc3C2=O)c1C`, the Potency was “inactive”. With `COc1ccc(C2C=C(c3ccccc3)Nc3ncnn32)cc1` (configuration not stated) the Potency was “inactive”. In the case of `O=C(COC(=O)c1c2c(nc3ccccc13)/C(=C/c1ccco1)CC2)NC1CCCC1`, the Potency is reported as inconclusive: 35.5 µM [inhibitor, single point]. In the case of `COc1ccc(-n2nc(C(=O)NCC(=O)N3CCN(c4ccccc4F)CC3)c3ccccc3c2=O)cc1OC`, the Potency is reported as inconclusive: 3.55 µM [inhibitor, single point]. For `COc1ccc(CCNS(=O)(=O)c2c(C)nc3scc(C)n3c2=O)cc1OC`, the Potency was inconclusive: 2.82 µM [inhibitor, partial curve, poor fit]. With `CC1=CC2=NC(=O)/C(=C\c3cc(C)n(-c4ccccc4)c3C)C(=N)N2O1` the Potency was inconclusive: 35.5 µM [inhibitor, single point]. For `COC1=C/C(=C/c2c(N)n3nc(-c4ccc(C)cc4)sc3nc2=O)C=CC1=O`, the Potency was active: 11.2 µM. For `Cc1ccc2oc(C(=O)N3CCC(O)(c4cccc(C(F)(F)F)c4)CC3)c(C)c2c1`, the Potency was inconclusive: 35.5 µM [inhibitor, single point]. For `NC(=O)c1c(NC(=O)c2ccc(F)cc2)sc2c1CCC2`, the Potency was inconclusive: 31.6 µM [inhibitor, single point]. With `Cc1ccc(-c2nn(-c3ccccc3)cc2CNCc2ccccc2)cc1` the Potency was “inactive”. In the case of `COC(=O)c1ccc(N(C(=O)CNC(=O)c2ccco2)C(C(=O)NCC2CCCO2)c2ccc(OC)c(OC)c2)cc1` (configuration not stated), the Potency is reported as inconclusive: 17.8 µM [inhibitor, single point]. In the case of `COc1ccc(NC(=O)/C(C#N)=C\c2cc(C)n(-c3ccc4c(c3)OCO4)c2C)cc1`, the Potency is reported as inconclusive: 17.8 µM [inhibitor, partial curve, poor fit]. With `CCCn1c(=O)c(C(=O)N/N=C/c2ccc(F)cc2)c(O)c2ccccc21` the Potency was “inactive”. With `Cc1ccc(-c2nc3ncccc3o2)cc1NC(=O)c1ccc([N+](=O)[O-])o1` the Potency was active: 22.4 µM. With `CC(C)c1cc(C(=O)N/N=C/c2c[nH]c3ccccc23)n[nH]1` the Potency was inconclusive: 3.16 µM [inhibitor, single point]. In the case of `CCOc1nc(-c2ccccc2)ccc1-c1noc(-c2cccnc2)n1`, the Potency is reported as inconclusive: 6.31 µM [inhibitor, single point]. For `Cc1cc(C(=O)Nc2nc(-c3ccccn3)cs2)ccc1[N+](=O)[O-]`, the Potency was inconclusive: 5.62 µM [inhibitor, single point]. In the case of `O=C(CN(c1cccc(Br)c1)S(=O)(=O)c1ccccc1)N/N=C/c1cc([N+](=O)[O-])ccc1O`, the Potency is reported as inconclusive: 3.16 µM [inhibitor, single point]. In the case of `COc1ccc(CCNC(=O)c2cc(-c3ccccc3OC)on2)cc1OC`, the Potency is reported as “inactive”. For `Cn1c(N)c(C(=O)COC(=O)CCCN2C(=O)c3ccccc3C2=O)c(=O)n(C)c1=O`, the Potency was inconclusive: 0.562 µM [inhibitor, partial curve, poor fit]. In the case of `COc1ccc(OCC(=O)NNC(=O)Cn2c(=O)cnc3ccccc32)cc1`, the Potency is reported as inconclusive: 3.16 µM [inhibitor, single point]. In the case of `CC1Oc2cc3oc4c(O)c(O)ccc4c(=O)c3c(O)c2C1(C)C` (configuration not stated), the Potency is reported as inconclusive: 17.8 µM [inhibitor, partial curve, poor fit]. With `COc1cc2c(cc1OC)C(C)N(C(=O)c1cccs1)CC2` (configuration not stated) the Potency was “inactive”. With `Cn1nnc(NC(=S)NC(=O)Cc2ccccc2)n1` the Potency was inconclusive: 35.5 µM [inhibitor, single point]. For `COc1cccc(CN2CCN(Cc3cccc(Br)c3)CC2)c1OC`, the Potency was inconclusive: 35.5 µM [inhibitor, single point]. For `Cc1ccccc1OCC(=O)Nc1ccccc1NC(=O)c1ccco1`, the Potency was “inactive”. In the case of `COc1cc(NC(=S)Nc2ccccn2)cc(OC)c1`, the Potency is reported as “inactive”. With `O=C(NC(=S)N1CCCCC1)c1csc([N+](=O)[O-])c1` the Potency was inconclusive: 35.5 µM [inhibitor, single point]. For `CC(=O)Nc1ccc(S(=O)(=O)NCC(=O)OCC(=O)c2cc(C)n(-c3ccc4c(c3)OCO4)c2C)cc1`, the Potency was inconclusive: 35.5 µM [inhibitor, single point]. For `Cc1ccc(-c2nc(NC(=O)CSc3ncn[nH]3)ns2)cc1`, the Potency was “inactive”. With `COc1ccc(NC(=S)NCC(c2ccco2)N2CCCC2)cc1` (configuration not stated) the Potency was inconclusive: 3.98 µM [inhibitor, full curve, poor fit]. For `Cc1ccc(O)c(-c2cc(-c3ccccc3[N+](=O)[O-])[nH]n2)c1`, the Potency was inconclusive: 7.94 µM [inhibitor, partial curve, poor fit]. With `O=C(Nc1ccccc1C(F)(F)F)C1CCN(C(=O)c2cccs2)CC1` the Potency was inconclusive: 3.98 µM [inhibitor, single point]. For `O=c1c2ccc(Cl)cc2nc2n1CC/C2=C\c1cccc(O)c1`, the Potency was inconclusive: 35.5 µM [inhibitor, single point]. In the case of `CCCCCc1cc(=O)oc2c(C(CCN3CCCC(C)C3)c3cc(OC)c(OC)c(OC)c3)c(OC)cc(OC)c12` (configuration not stated), the Potency is reported as inconclusive: 31.6 µM [inhibitor, single point]. For `COc1ccc(CCNC(=O)CSc2ccc3ccccc3c2)cc1OC`, the Potency was “inactive”. With `COc1ccc(N/C=C2\C(=O)CCc3c2oc2cc(Cl)c(O)c(Cl)c32)cc1` the Potency was inconclusive: 7.08 µM [inhibitor, full curve, poor fit]. In the case of `CCC(NC(=O)Nc1cc(Cl)ccc1OC)c1c(-n2cccc2)sc2c1CCN(C)C2` (configuration not stated), the Potency is reported as inconclusive: 35.5 µM [inhibitor, single point]. In the case of `C/C(=N\NC(=S)NC(C)C)c1ccc(Cl)c([N+](=O)[O-])c1`, the Potency is reported as inconclusive: 7.94 µM [inhibitor, partial curve, poor fit]. In the case of `O=C(Nc1sc2c(c1C(=O)O)CCCCC2)c1ccccc1`, the Potency is reported as “inactive”. In the case of `COCCNC(=O)CCC1CCN(Cc2cccc(-c3ccc(C)o3)c2)CC1`, the Potency is reported as inconclusive: 35.5 µM [inhibitor, single point]. For `COc1ccccc1OCC(=O)N/N=C/c1cccc2cccnc12`, the Potency was inconclusive: 2.82 µM [inhibitor, single point]. With `Cc1nnc(N2C(=O)C(O)=C(C(=O)c3ccco3)C2c2ccc(C(C)C)cc2)s1` (configuration not stated) the Potency was “inactive”. With `COCCNC(=O)CSc1ccccc1C(=O)O` the Potency was inconclusive: 35.5 µM [inhibitor, single point]. For `COC(=O)NC(NC(=S)Nc1ccc([N+](=O)[O-])cc1)C(Cl)(Cl)Cl` (configuration not stated), the Potency was “inactive”. In the case of `O=C1CC(c2ccccc2)CC(O)=C1C=Nc1ccccc1` (configuration not stated), the Potency is reported as “inactive”. In the case of `COCCOC(=O)C1=C(C)OC(N)=C(C#N)C1c1cc2cccc(C)c2nc1Cl` (configuration not stated), the Potency is reported as inconclusive: 35.5 µM [inhibitor, single point]. In the case of `Nc1ccc(-c2nc3ccccc3o2)cc1`, the Potency is reported as inconclusive: 28.2 µM [inhibitor, single point]. In the case of `O=C(CSc1nc(-c2ccc(F)cc2)nc2c1Cc1ccccc1O2)Nc1cccc(C(=O)O)c1`, the Potency is reported as “inactive”. For `O=S(=O)([N-]c1nc2ccccc2nc1-[n+]1ccccc1)c1ccc(Cl)cc1`, the Potency was inconclusive: 35.5 µM [inhibitor, single point]. For `CCOc1ccc(NC(=O)CC2C(=O)N(c3ccc(C)cc3)C(=O)N2C2CCCCC2)cc1` (configuration not stated), the Potency was “inactive”. With `CC(NC(=O)CCN1C(=O)c2ccccc2C1=O)c1ccccc1` (configuration not stated) the Potency was inconclusive: 35.5 µM [inhibitor, single point]. For `CCOC(=O)N1CCC(N(CCN(C)C)C(=S)Nc2cccc(OC)c2)CC1`, the Potency was inconclusive: 6.31 µM [inhibitor, single point]. With `N#CCCN(C(=O)COc1ccc(C#N)cc1)c1ccc(F)cc1` the Potency was inconclusive: 35.5 µM [inhibitor, partial curve, poor fit].
